# According to patent US8846914B2, “Compositions to effect neuronal growth” (Neuralstem, Inc., priority 2003, dated 2014):
# Where “and” joins values, the source holds several entries; their conditions need not be identical. Equal values may be shown once. The name of at least one read-out is uncertain.
# Tested on: human hippocampal stem cells differentiated for 3-4 weeks
# Test: Neuroprotection against staurosporine-induced neurodegeneration
# Assay type: cell-based
# Conditions: 125 nM staurosporine, twenty-four hour; 10 μM agent
# Procedure: FIG. 7A is a bar graph illustrating an example of a neuroprotection profile of the compounds against staurosporine-induced human hippocampal neurodegeneration as indicated by loss of neurons after twenty-four hour treatment with staurosporine by counting the remaining number of neurons, an increase in […], and an increase in intracellular levels of activated caspase-3/-7 detected by immunostaining. Addition of 125 nM staurosporine solution to human hippocampal stem cells differentiated for 3-4 weeks causes neuronal injury and death. Effect of the […] treatment to inhibit the staurosporine-induced neuronal loss and injury are shown. Each bar represents n=6 wells of the mean+/−the SEM from a single experiment. […]
# Agents that promote proliferation and neurogenesis are further evaluated for their ability to inhibit neurodegeneration and apoptosis of the human hippocampal multipotent stem cell-derived neurons. […]
# A number of neurogenic agents inhibit neuronal loss, caspase-3 activity and/or nuclear fragmentation compared to staurosporine vehicle control. These NSI small molecule agents are all effective at in vitro neurogenesis as determined by methods described. […] Instrumentation such as a Molecular Devices fluorescent plate reader or a […] Array Scan II instrument and the like may be used to measure the degeneration and apoptosis. […]
smiles,measurement,value
CC(C)CCNc1ncccc1C(=O)N1CCN(Cc2ccccc2)CC1 [NSI-189],Stauro % Inhib Nuclear Frag,121 ± 74/ % and 182 ± 39%
